# Results: PubChem BioAssay AID540256 (National Center for Advancing Translational Sciences (NCATS), 2011)
# Screen size: about 300,000 compounds; about 3,700 (1.2%) were called active. Inconclusive results, whose numbers are uncertain, are shown with a selection of clear calls. Calls come from the whole dose curve; tested in HEK293 cells. A potency beside an inconclusive call is a rough fit, not a confirmed value.
# Experiment: qHTS for Inhibitors of binding or entry into cells for Lassa Virus; note: nearly all actives have a fitted effect of over 50% in size
# Details: Lassa virus pseudotype entry inhibition, cell reporter; activity change, negative = inhibition: at 37.9 µM (top of the series) unless noted
# % is set by controls: 0 for no effect and ±100 for the full control effect; potency is the fitted concentration of half-maximal effect.
Structure (SMILES),Potency,"activity change, negative = inhibition"
Cc1ccc2nc(NC(=O)C3CCN(S(=O)(=O)c4cccc5nsnc45)CC3)sc2c1,"inconclusive: 35.5 µM [inhibitor, single point]",–
Cc1ccc(O)cc1Nc1ccnc2cc(-c3ccccn3)ccc12,active: 25 µM,–
O=C(Nc1cccc(NC(=O)c2ccc([N+](=O)[O-])o2)c1)c1ccco1,"inconclusive: 11.2 µM [inhibitor, partial curve, poor fit]",–
O=c1cc(C(F)(F)F)c2cc3c4c(c2o1)CCCN4CCC3,–,inactive: -14.3%
CC1CCN(C(=O)Cn2c(=O)n(CCCCCC(=O)NCc3ccccc3Cl)c(=O)c3sccc32)CC1,"inconclusive: 14.1 µM [inhibitor, single point]",–
CC(=O)Nc1cc(-c2nc3cc(Cl)ccc3o2)ccc1C,–,inactive: 21.6% [at 46.1 µM]
CCCC(=O)Nc1ccc(-c2csc(N/N=C\c3ccncc3)n2)cc1,"inconclusive: 22.4 µM [inhibitor, single point]",–
CC/C(=N\Nc1ccc([N+](=O)[O-])cc1)c1ccccc1,"inconclusive: 20.6 µM [inhibitor, partial curve, poor fit]",–
Cc1ccc(NC(=O)N2CCc3cc(S(=O)(=O)N4CCC(C)CC4)ccc32)cc1,"inconclusive: 5.62 µM [activator, partial curve, poor fit]",–
CCOc1ccccc1NC(=O)C1CCCN(S(C)(=O)=O)C1 (stereo not drawn),–,inactive: 12.6% [at 46.1 µM]
COc1ccccc1N1CCN(C(=O)Cn2ncc3ccsc3c2=O)CC1,–,inactive: 3.67% [at 46.1 µM]
CCN(c1cccc(C(F)(F)F)c1)S(=O)(=O)c1ccc2c(c1)CCN2C(=O)C1CC1,"inconclusive: 3.98 µM [inhibitor, full curve, poor fit]",–
COc1ccc(C(CCN(Cc2ccc(OC)c(OC)c2)C(=O)CCl)c2ccccc2)cc1 (stereo not drawn),active: 10 µM,–
CCC1CN(C(=O)N2CCC(C(=O)NCCc3cc(OC)ccc3OC)CC2)c2ccccc2O1 (stereo not drawn),"inconclusive: 10 µM [inhibitor, partial curve, poor fit]",–
CN=C1S/C(=C\c2ccc(SC)cc2)C(=O)N1C,"inconclusive: 5.62 µM [inhibitor, single point]",–
CCOc1ccccc1N1CCN(C(=O)c2ccc3nc(N)sc3c2)CC1,"inconclusive: 35.5 µM [inhibitor, single point]",–
COc1ccc(-c2oc(=O)n(C)c2-c2ccc(OC)cc2)cc1,"inconclusive: 14.1 µM [inhibitor, partial curve]",–
Cc1ccc(Cc2nc(-c3ccccn3)no2)cc1,"inconclusive: 0.708 µM [activator, full curve, poor fit]",–
Cc1c(CNC2CCCC2)c(C(=O)O)c(C)n1Cc1ccccc1,–,inactive: 2.69%
CCOC(=O)C1(Cc2cccc(OC)c2)CCN(Cc2ccc(C)s2)CC1,active: 4.47 µM,–
Cc1ccc(S(=O)(=O)N2CCC(C(=O)Nc3ccc(S(=O)(=O)N4CCCC4)cc3)CC2)cc1,–,inactive: -15.5% [at 46.1 µM]
COc1ccc(C(CNC(=O)c2c(C)nn(Cc3ccc(C)cc3)c2Cl)N2CCOCC2)cc1 (stereo not drawn),"inconclusive: 3.98 µM [inhibitor, partial curve, poor fit]",–
Cc1occc1C(=O)Nc1ccc2c(c1)OCO2,"inconclusive: 0.891 µM [activator, full curve, poor fit]",–

Structure (SMILES),Potency,"activity change, negative = inhibition"
COC(=O)c1c(-c2cccs2)csc1NC(=O)c1ccc(Br)cc1,"inconclusive: 2.82 µM [activator, full curve, poor fit]",–
COC(=O)c1c(-c2cccs2)csc1NC(=O)c1cccc(Cl)c1,–,inactive: 13.9% [at 46.1 µM]
Cc1cccc(NC(=O)CSc2nc(-c3cccs3)cc(C(F)(F)F)c2C#N)c1C,–,inactive: 4.83% [at 46.1 µM]
O=C(NCCOc1ccccc1)c1cccc(S(=O)(=O)NCc2ccccc2)c1,"inconclusive: 3.55 µM [inhibitor, partial curve, poor fit]",–
Cc1nc2ccccn2c1-c1csc(Nc2cccc(O)c2)n1,"inconclusive: 11.2 µM [inhibitor, partial curve, poor fit]",–
CCOC(=O)N1CCN(C(=O)c2ccccc2CCc2ccccc2)CC1,"inconclusive: 3.16 µM [inhibitor, full curve, poor fit]",–
COc1cccc2cc(C(C)N(CCCN3CCOCC3)C(=O)Nc3ccc(Cl)cc3)oc12 (stereo not drawn),"inconclusive: 1.26 µM [inhibitor, single point]",–
CCOC(=O)C1=C(C)NC(SCC(=O)Nc2cc(C)on2)=C(C#N)C1c1cccs1 (stereo not drawn),"inconclusive: 29.1 µM [inhibitor, single point]",–
CCCCOc1ccc(C(=O)NC)cc1,"inconclusive: 11.2 µM [activator, partial curve, poor fit]",–
Cc1cccc(S(=O)(=O)Nc2ccc(-c3cn4ccccc4n3)cc2)c1,"inconclusive: 7.94 µM [inhibitor, partial curve]",–
Cc1cccc(NC2=Nc3ccccc3N3C2=Nc2c(c(C)nn2-c2ccccc2)C3c2ccc(O)c(O)c2)c1 (stereo not drawn),"inconclusive: 20 µM [inhibitor, single point]",–
O=C(NCc1cccs1)c1nn(-c2ccccc2Cl)nc1CO,"inconclusive: 6.31 µM [activator, single point]",–
O=C(c1cnn2c1NC(c1ccc(Br)cc1)CC2C(F)(F)F)N1CCN(C23CC4CC(CC(C4)C2)C3)CC1 (stereo not drawn),–,inactive: 1.81%
O=[N+]([O-])c1ccc(OCc2nnc(-c3ccccc3)o2)cc1,"inconclusive: 1.26 µM [activator, partial curve, poor fit]",–
CN(NS(=O)(=O)c1ccc(Br)cc1)c1nc(C(F)(F)F)nc2ccccc12,"inconclusive: 35.5 µM [inhibitor, partial curve, poor fit]",–
CCCNC(=O)C1=CC(c2ccc3c(c2)OCO3)=NS(=O)(=O)N1C,–,inactive: -1.17% [at 46.1 µM]
COc1ccc(CNC(=O)C(=O)Nc2c3c(nn2-c2ccccc2)CSC3)cc1,"inconclusive: 0.562 µM [inhibitor, full curve, poor fit]",–
Cc1ccc(NC(=O)C2CCC(C(C)(C)C)CC2)cc1S(=O)(=O)N1CCOCC1 (stereo not drawn),"inconclusive: 17.8 µM [inhibitor, single point]",–
COc1ccc(N=Cc2sc3ccccc3c2Cl)cc1,–,inactive: 12.8%
CC(/C=N/n1cnnc1)=C\c1ccco1,–,inactive: -0.53%
Cc1ccc(CN2C(=O)NC(Cc3c[nH]c4ccccc34)C2=O)cc1 (stereo not drawn),"inconclusive: 18.4 µM [inhibitor, partial curve, poor fit]",–
O=C(c1ccco1)N1CCN(C(=S)NC2CC3CCC2C3)CC1 (stereo not drawn),–,inactive: -0.216% [at 46.1 µM]
CCCCC[C@H](O)/C=C/[C@@H]1[C@@H](C/C=C\CCCC(=O)OC)[C@@H](O)C[C@H]1O,"inconclusive: 25.9 µM [inhibitor, partial curve, poor fit]",–

# 5 of the compounds above, with tabs.
Structure (SMILES)	Potency	activity change, negative = inhibition
COC(=O)c1c(-c2cccs2)csc1NC(=O)c1cccc(Cl)c1	–	inactive: 13.9% [at 46.1 µM]
CCCCOc1ccc(C(=O)NC)cc1	inconclusive: 11.2 µM [activator, partial curve, poor fit]	–
O=C(c1cnn2c1NC(c1ccc(Br)cc1)CC2C(F)(F)F)N1CCN(C23CC4CC(CC(C4)C2)C3)CC1 (stereo not drawn)	–	inactive: 1.81%
CN(NS(=O)(=O)c1ccc(Br)cc1)c1nc(C(F)(F)F)nc2ccccc12	inconclusive: 35.5 µM [inhibitor, partial curve, poor fit]	–
COc1ccc(CNC(=O)C(=O)Nc2c3c(nn2-c2ccccc2)CSC3)cc1	inconclusive: 0.562 µM [inhibitor, full curve, poor fit]	–

# Following part.

Structure (SMILES),Potency,"activity change, negative = inhibition"
CCOc1ccccc1NC(=O)COC(=O)C1CC1,"inconclusive: 7.08 µM [activator, partial curve, poor fit]",–
CCn1cc(C(=O)O)c(=O)c2cnc(N3CCN(C(=S)Nc4ccccc4C(F)(F)F)CC3)nc21,"inconclusive: 28.2 µM [inhibitor, single point]",–
CN(C)CCNC(=O)c1ccc(Sc2ccc(Br)cc2)c([N+](=O)[O-])c1,"inconclusive: 22.4 µM [inhibitor, single point]",–
COc1ccc(-c2nc(C#N)c(N3CCCCC3)o2)cc1,–,inactive: -2.74%
CC(=O)N1CCc2cc(S(=O)(=O)Nc3cccc(C(F)(F)F)c3)ccc21,"inconclusive: 35.5 µM [inhibitor, single point]",–
COc1ccc(-n2c(=O)c3ccccc3n(CC(=O)Nc3cc(C)on3)c2=O)cc1OC,–,inactive: 4.88%
Cc1ccc(C(=O)N2CCc3cc(CNC(=O)CSc4ccccc4)ccc32)cc1,"inconclusive: 11.2 µM [inhibitor, single point]",–
COc1ccc(C2=NOC(CNC(=S)N3CCOCC3)C2)cc1 (stereo not drawn),"inconclusive: 7.94 µM [activator, partial curve, poor fit]",–
O=C(N/N=C/c1ccsc1)c1cc(-c2ccncc2)nc2ccccc12,"inconclusive: 1.3 µM [inhibitor, full curve]",–
COCCNC(=S)N/N=C(\C)c1cc2ccccc2o1,"inconclusive: 13 µM [inhibitor, partial curve, poor fit]",–
CCN(CC)c1ccc(NC(=O)OC)cc1,"inconclusive: 5.62 µM [activator, partial curve, poor fit]",–
Cc1sc2ncnc(NC3CCN(Cc4ccccc4)CC3)c2c1C,"inconclusive: 10 µM [inhibitor, partial curve, poor fit]",–
CN(C)c1ccc(N=Nc2ccc3ncccc3c2)cc1,"inconclusive: 4.47 µM [inhibitor, full curve, poor fit]",–
CC(C)CC(=O)N1c2nc(C(C)C)nn2C2(CCCCC2)[C@@H]2CCCC[C@@H]21,–,inactive: 9.21% [at 46.1 µM]
O=C(COC(=O)c1ccc(N2CCCC2=O)cc1)c1ccc(OC(F)F)cc1,"inconclusive: 2 µM [inhibitor, single point]",–
CCCN(CCC)c1ccc(/C=N/NC(=O)CN2CCOCC2)cc1,–,inactive: -18.1% [at 46.1 µM]
Cc1nn(-c2ccccc2)c(N2CCCC2)c1/C=N/Nc1ccc(S(N)(=O)=O)cc1[N+](=O)[O-],"inconclusive: 20 µM [inhibitor, single point]",–
CCOc1ccc(C(=O)Nc2nnc(C3=COCCO3)o2)cc1,–,inactive: -3.72%
O=C(CCC(=O)OCCCC(F)(F)C(F)(F)F)NC1CCCCC1,–,inactive: -6.43%
Cc1nn(Cc2c(F)c(F)c(F)c(F)c2F)c(C)c1NC(=O)c1nn(C)cc1[N+](=O)[O-],–,inactive: -23.8% [at 14.3 µM]
C=CCN(CC=C)CCOc1cccc2ccccc12,–,inactive: 2.83%
COc1cc(C(=O)NCc2ccncc2)cc(Br)c1OCc1ccccc1,"inconclusive: 7.94 µM [inhibitor, partial curve, poor fit]",–
